PubChem BioAssay AID743454 – Peter MacCallum Cancer Centre – 2014
The whole screen tested about 18,000 reagents; shown is a part drawn at random. Over the whole deposit, 450 (2.5%) are marked active. 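Single biological run; no consistent viability z cut-off exists, so the class columns, not z-scores, define the calls.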

Aim: 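Search for knock-downs that restore vorinostat killing in resistant colon cancer cells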 (primary screen)
System: human HCT116-VR colon cancer cells, selected for vorinostat resistance
Reagents: siRNA pool against human genes, 40 nM siRNA pool
Time to read-out: vorinostat for 24 h, read-out about 72 h after transfection
Treatment: vorinostat at 2.5 µM final
Detection: 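Cell viability by CellTiter-Fluor and caspase 3/7 activity by luminescence, each scaled to mock wells per plate, duplicates averaged, then robust z-scored over all plates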
Reading the numbers: viability robust z-score: higher = more viable cells than screen typical; caspase robust z-score: higher = more caspase 3/7 activity than screen typical
Rule for the call: 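Hits are knock-downs in viability class RV1/RV2 or caspase class CA1/CA2, excluding ones that killed cells in the no-drug cell-count arm; hits then retested with single siRNAs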

| target gene | viability hit class | caspase hit class | viability robust z-score | caspase robust z-score | outcome |
| --- | --- | --- | --- | --- | --- |
| JMJD6 | no change | no change | -1.56 | 5.05 | inactive |
| BTN1A1 | no change | no change | 0.6 | -1.03 | inactive |
| NES | no change | no change | 0.04 | -1.06 | inactive |
| ASB16 | no change | no change | -1.52 | 2.52 | inactive |
| IL34 | no change | no change | 0.82 | -1.06 | inactive |
| INSIG1 | no change | no change | 0.82 | -1.1 | inactive |
| NFAT5 | no change | no change | -0.37 | 1.86 | inactive |
| PCDHB4 | no change | no change | -0.97 | -0.23 | inactive |
| LINGO4 | no change | no change | -0.18 | 4.32 | inactive |
| CPT1A | no change | no change | 1.42 | -0.33 | inactive |
| C2orf66 | no change | no change | -0.82 | 0.7 | inactive |
| KLHDC8B | no change | no change | 0.01 | 4.64 | inactive |
| CENPU | no change | no change | -0.37 | -0.08 | inactive |
| ZNF32 | no change | no change | -1.47 | 1.26 | inactive |
| SRXN1 | no change | no change | 0.35 | -0.79 | inactive |

Quoted from the listing for reference:
| target gene | viability hit class | caspase hit class | viability robust z-score | caspase robust z-score | outcome |
| --- | --- | --- | --- | --- | --- |
| IL34 | no change | no change | 0.82 | -1.06 | inactive |
| INSIG1 | no change | no change | 0.82 | -1.1 | inactive |
| NFAT5 | no change | no change | -0.37 | 1.86 | inactive |
| PCDHB4 | no change | no change | -0.97 | -0.23 | inactive |

The results go on.
| target gene | viability hit class | caspase hit class | viability robust z-score | caspase robust z-score | outcome |
| --- | --- | --- | --- | --- | --- |
| FAM43B | no change | no change | 0.1 | 0.62 | inactive |
| CFAP65 | no change | no change | -0.38 | -0.24 | inactive |
| SRFBP1 | no change | no change | -1.41 | -0.92 | inactive |
| SH2D3C | no change | no change | -1.45 | 2.11 | inactive |
| ZNF37A | no change | no change | -0.5 | 0.3 | inactive |
| SRP54 | no change | no change | -1.25 | -0.56 | inactive |
| SPOP | no change | no change | -0.74 | -0.91 | inactive |
| BHLHE40 | no change | no change | 0.25 | 0.02 | inactive |
